Article doi:10.1101/792994
No constants are given. Whether binding was seen depends on the method and setting. Binding seen in cells or lysates may run through a third protein. These calls come from enrichment with a bait or labelling near it, and not all partners need be listed. Where a sequence is shown, tags or fusion partners need not be part of it. Values belong to the molecule of their own block, whether it stands above or below them.

Chains of the proteins cited; added tags and fusions are not shown.
UniProt O60573: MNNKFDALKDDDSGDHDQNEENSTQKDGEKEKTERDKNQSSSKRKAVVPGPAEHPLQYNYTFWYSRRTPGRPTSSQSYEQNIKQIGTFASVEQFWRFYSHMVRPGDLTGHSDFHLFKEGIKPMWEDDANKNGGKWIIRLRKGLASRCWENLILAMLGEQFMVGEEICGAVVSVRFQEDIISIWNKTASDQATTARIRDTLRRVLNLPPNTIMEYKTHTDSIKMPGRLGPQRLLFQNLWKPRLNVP

Molecular target: T1, FLAG-tagged ZNF598 (human) (UniProt Q86UK7)
T1 sequence: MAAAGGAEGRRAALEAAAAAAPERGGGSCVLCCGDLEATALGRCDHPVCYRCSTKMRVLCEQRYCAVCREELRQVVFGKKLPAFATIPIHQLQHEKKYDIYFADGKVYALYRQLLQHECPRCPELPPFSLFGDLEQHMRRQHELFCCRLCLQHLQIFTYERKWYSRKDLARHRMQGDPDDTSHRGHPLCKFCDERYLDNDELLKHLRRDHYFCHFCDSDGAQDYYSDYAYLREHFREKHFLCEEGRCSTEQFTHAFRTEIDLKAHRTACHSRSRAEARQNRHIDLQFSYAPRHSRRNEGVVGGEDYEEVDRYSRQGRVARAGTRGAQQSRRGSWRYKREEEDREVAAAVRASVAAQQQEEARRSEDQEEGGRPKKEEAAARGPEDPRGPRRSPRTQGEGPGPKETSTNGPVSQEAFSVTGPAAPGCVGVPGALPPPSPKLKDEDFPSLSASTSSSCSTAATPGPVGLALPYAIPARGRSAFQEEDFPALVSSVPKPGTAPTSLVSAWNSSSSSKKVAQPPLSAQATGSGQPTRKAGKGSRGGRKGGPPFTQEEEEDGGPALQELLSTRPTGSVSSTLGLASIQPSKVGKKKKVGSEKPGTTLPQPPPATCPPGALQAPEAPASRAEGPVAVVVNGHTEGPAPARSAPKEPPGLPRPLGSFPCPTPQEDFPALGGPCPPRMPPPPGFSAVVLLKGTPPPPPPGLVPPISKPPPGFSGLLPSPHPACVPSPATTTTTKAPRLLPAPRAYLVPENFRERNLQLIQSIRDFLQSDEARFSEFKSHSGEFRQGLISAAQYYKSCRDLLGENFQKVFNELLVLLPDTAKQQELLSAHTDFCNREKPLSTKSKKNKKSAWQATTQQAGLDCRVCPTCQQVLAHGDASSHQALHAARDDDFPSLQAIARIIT
Assay: affinity purification with mass spectrometry

binding: binds
Molecule: 4EHP (from UniProt O60573 1-245)

binding: binds
B1: GIGYF2 (protein, UniProt Q6Y7W6 1-1299)
chain: MAAETQTLNFGPEWLRALSSGGSITSPPLSPALPKYKLADYRYGREEMLALFLKDNKIPSDLLDKEFLPILQEEPLPPLALVPFTEEEQRNFSMSVNSAAVLRLTGRGGGGTVVGAPRGRSSSRGRGRGRGECGFYQRSFDEVEGVFGRGGGREMHRSQSWEERGDRRFEKPGRKDVGRPNFEEGGPTSVGRKHEFIRSESENWRIFREEQNGEDEDGGWRLAGSRRDGERWRPHSPDGPRSAGWREHMERRRRFEFDFRDRDDERGYRRVRSGSGSIDDDRDSLPEWCLEDAEEEMGTFDSSGAFLSLKKVQKEPIPEEQEMDFRPVDEGEECSDSEGSHNEEAKEPDKTNKKEGEKTDRVGVEASEETPQTSSSSARPGTPSDHQSQEASQFERKDEPKTEQTEKAEEETRMENSLPAKVPSRGDEMVADVQQPLSQIPSDTASPLLILPPPVPNPSPTLRPVETPVVGAPGMGSVSTEPDDEEGLKHLEQQAEKMVAYLQDSALDDERLASKLQEHRAKGVSIPLMHEAMQKWYYKDPQGEIQGPFNNQEMAEWFQAGYFTMSLLVKRACDESFQPLGDIMKMWGRVPFSPGPAPPPHMGELDQERLTRQQELTALYQMQHLQYQQFLIQQQYAQVLAQQQKAALSSQQQQQLALLLQQFQTLKMRISDQNIIPSVTRSVSVPDTGSIWELQPTASQPTVWEGGSVWDLPLDTTTPGPALEQLQQLEKAKAAKLEQERREAEMRAKREEEERKRQEELRRQQEEILRRQQEEERKRREEEELARRKQEEALRRQREQEIALRRQREEEERQQQEEALRRLEERRREEEERRKQEELLRKQEEEAAKWAREEEEAQRRLEENRLRMEEEAARLRHEEEERKRKELEVQRQKELMRQRQQQQEALRRLQQQQQQQQLAQMKLPSSSTWGQQSNTTACQSQATLSLAEIQKLEEERERQLREEQRRQQRELMKALQQQQQQQQQKLSGWGNVSKPSGTTKSLLEIQQEEARQMQKQQQQQQQHQQPNRARNNTHSNLHTSIGNSVWGSINTGPPNQWASDLVSSIWSNADTKNSNMGFWDDAVKEVGPRNSTNKNKNNASLSKSVGVSNRQNKKVEEEEKLLKLFQGVNKAQDGFTQWCEQMLHALNTANNLDVPTFVSFLKEVESPYEVHDYIRAYLGDTSEAKEFAKQFLERRAKQKANQQRQQQQLPQQQQQQPPQQPPQQPQQQDSVWGMNHSTLHSVFQTNQSNNQQSNFEAVQSGKKKKKQKMVRADPSLLGFSVNASSERLNMGEIETLDDY
